Test results as given in patent publication US20140187423A1, “Fungicidal substituted 1--1H-[1,2,4]triazole compounds” (BASF SE, priority 2011, published 2014).
Some of these results come from one statement about several compounds together.

What was measured:
Format in all cases: cell-based
Conditions in all cases: at 32 ppm, MTP measured at 405 nm 7 days after inoculation, control = 100%
Septoria tritici = assay: Microtest M2: activity against leaf blotch on wheat caused by Septoria tritici (Septtr)
Alternaria solani = assay: Microtest M3: activity against early blight caused by Alternaria solani (Alteso)
Leptosphaeria nodorum = assay: Microtest M1: activity against wheat leaf spots caused by Leptosphaeria nodorum (Leptno)

## CCCCC(Cn1cncn1)(OC)c1ccc(Oc2ccc(Cl)cc2)cc1Cl (stereo not drawn) [I-1, 1-[2-[2-chloro-4-(4-chlorophenoxy)phenyl]-2-methoxy-hexyl]-1,2,4-triazole]
Septoria tritici
  growth (relative growth in % of the pathogen): ≤ 2%
Alternaria solani
  growth (relative growth in % of the pathogen): ≤ 5%
Leptosphaeria nodorum
  growth (relative growth in % of the pathogen): ≤ 2%
